# Test results reported in PubChem BioAssay AID2685 (National Center for Advancing Translational Sciences (NCATS), 2010).
# The other results are listed elsewhere or left out. Shown are side measurements of this screen, not its main read-out; they come without a call. Most of these compounds were active or inconclusive in the main read-out, so they are no random draw. The note in brackets gives the kind of curve behind each potency; many fits are weak.
# Assay: qHTS Assay for Lipid Storage Modulators in Drosophila S3 Cells;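 for cell number change: cells counted by Cell Tracker Red CMTPX staining in the red channel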
# Conditions: BODIPY lipid droplet fluorescence, 18-24 h; for cell number change: measured here: cell count max response, cells fed with added oleic acid
# Method in brief: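 Drosophila S3 cells got compounds at several concentrations plus oleic acid (400 uM solution). Laser-scanning cytometry with 488 nm excitation read lipid droplets at 500-530 nm and cells at 575-640 nm. Percent activity was relative to 20 uM Triacsin C.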
# [1] = measured here: cell number channel AC50, cells fed with added oleic acid
# [2] = measured here: lipid fluorescence (Fed channel) AC50, cells fed with added oleic acid
SMILES,cell number change,AC50 [1],AC50 [2]
CCc1ccc(N=c2c([N+](=O)[O-])nn(-c3ccc4c(c3)OCCO4)n2O)cc1,-33.6%,"16.4 µM [falling, partial curve, poor fit]","3.26 µM [falling, full curve]"
Cc1nc2c(cnn2-c2ccccc2Cl)c(=O)n1-c1ccc(C(C)C)cc1,51.5%,"29.1 µM [rising, single point]","29.1 µM [falling, single point]"
CCOC(=O)c1ccc(NC(=O)CSc2nccn2C)cc1,27.1%,,"5.8 µM [rising, full curve]"
Cc1cc(N/N=C/c2cccc([N+](=O)[O-])c2)nc(-n2nc(C)cc2C)n1,,"6.51 µM [rising, single point]",
O=C(Nc1ccc(Cl)c(Cl)c1)c1ccc2c(c1)OCO2,-18%,,"29.1 µM [falling, single point]"
CCCc1ccc(S(=O)(=O)NCc2nnc(SC)n2C)cc1,5.26%,,
O=C(Cc1ccc(Br)cc1)N1CCN(c2ccccn2)CC1,-1.77%,,"6.51 µM [rising, single point]"
O=C(Nc1nnc(SCc2c(Cl)cccc2Cl)s1)C1CC(=O)N(c2ccc3c(c2)OCCO3)C1 (centres undefined),13.8%,,
CCN(CC)S(=O)(=O)c1ccc(Cl)c(C(=O)Oc2cccnc2)c1,-2.04%,,"29.1 µM [falling, partial curve]"
CN(c1cccc(NC(=O)c2ccccc2N(C)S(=O)(=O)c2ccccc2)c1)S(C)(=O)=O,-8.47%,,"29.1 µM [falling, single point]"
CCOC(=O)/C(C#N)=C/c1cccc([N+](=O)[O-])c1,15%,,"29.1 µM [rising, single point]"
CC(=O)NC(c1ccco1)c1cc(Br)c2cccnc2c1O (centres undefined),,,"0.164 µM [falling, full curve, poor fit]"
COc1c(Cl)cc(Cl)cc1C(=O)Nc1ccc(CN2CCOCC2)cc1,-8.77%,,
CC(C)(C)C(=O)NC1CCN(C(=O)N2CCCC2)CC1,-5.19%,,
COC(=O)c1ccccc1NC(=O)CN1C(=O)c2ccccc2S1(=O)=O,-16.5%,,"29.1 µM [rising, single point]"
O=C(NC(=S)N1CCN(c2nc(-c3ccccc3)cs2)CC1)c1cccnc1,10.1%,,
CCCCC(=O)c1c(O)c2ccccc2oc1=O,9.88%,,
CC/C(=N\N=C1\SC(C)C(=O)N1Cc1ccco1)c1ccccc1 (centres undefined),0.471%,,"29.1 µM [rising, single point]"
CCN(CC)S(=O)(=O)c1cccc(NC(=O)CCNC(=O)NC23CC4CC(CC(C4)C2)C3)c1,34%,"16.4 µM [rising, single point]",
Cc1ccc2nc(SCC(=O)NCc3ccc4c(c3)OCO4)nc(=O)n2c1,88%,"9.2 µM [rising, partial curve]",
CC1C(C#N)=C(N)OC2=C1C(=O)CC(c1ccccc1)C2 (centres undefined),-39.6%,"32.6 µM [falling, single point]","0.0291 µM [falling, full curve, poor fit]"

SMILES,cell number change,AC50 [1],AC50 [2]
O=C(Cn1cncn1)NCc1cccc(OC(F)F)c1,9.52%,,
CC(=O)c1cccc(NC(=O)CCc2nc3sc4c(c3c(=O)[nH]2)CCCC4)c1,82.2%,"16.4 µM [rising, single point]",
COCCn1nnnc1CN1CCC(NC(=O)c2ccc(Br)cc2)CC1,-1.56%,,"2.59 µM [falling, partial curve, poor fit]"
Cc1ccc(S(=O)(=O)Nc2ccc(NC(=O)Nc3ccc(F)cc3F)cc2)cc1,-33.2%,"6.51 µM [falling, partial curve]",
Cc1ccc(C)c(C(=O)COC(=O)CNS(=O)(=O)c2ccccc2)c1,-1.32%,,
CCOC(=O)C1CCN(c2nc3ccccc3nc2C(C#N)C(=O)OCCOC)CC1 (centres undefined),-2.1%,,"14.6 µM [rising, single point]"
COCc1c(C(=O)NC(C)c2ccc(S(N)(=O)=O)cc2)oc2ccccc12 (centres undefined),1.68%,,"29.1 µM [rising, partial curve, poor fit]"
Cc1cc(N2CCCC2=O)ccc1S(=O)(=O)NC1CCCCC1,5.46%,,"0.291 µM [rising, single point]"
COc1cccc(C(=O)NCC(=O)N/N=C/c2c(C)[nH]c3ccccc23)c1,-30%,"0.058 µM [falling, full curve, poor fit]","0.184 µM [falling, full curve, poor fit]"
CCCCC(CC)CNC(=O)C1CC=CCC1C(=O)O (centres undefined),-6.74%,,"18.4 µM [rising, single point]"
CC(C)(C)c1ccc(C(=O)Nc2ccccc2C(=O)NCCN2CCOCC2)cc1,22.3%,,"29.1 µM [falling, single point]"
Cc1nnc2ccc(N3CCOCC3)nn12,-31.3%,"4.11 µM [falling, full curve, poor fit]","18.4 µM [falling, partial curve]"
Cc1ccc(C(C)(C)C)c(OCCCCN2CCCC2)c1,-6.35%,"0.0058 µM [rising, full curve, poor fit]","6.51 µM [falling, single point]"
CSc1ccc(/C=C(/NC(=O)c2ccc(C)cc2)C(=O)Nc2cccc(F)c2)cc1,-7.95%,"6.51 µM [rising, single point]",
O=C(/C=C/c1ccccc1)NC(=S)NNC(=O)c1cnccn1,6.11%,,
CCCCN(C)CCn1c(=S)[nH]c2ncccc2c1=O,0.45%,,
Cn1c(=O)c2c(ncn2CC(=O)Nc2ccccc2N2CCOCC2)n(C)c1=O,14.2%,,
COC(=O)/C=C/C(=O)Nc1ccc(O)c(Cl)c1,2.36%,,"0.092 µM [rising, full curve, poor fit]"
N/C(=N\c1nc2ccccc2o1)NC(=O)c1ccc([N+](=O)[O-])cc1,46.6%,"0.326 µM [rising, full curve, poor fit]","29.1 µM [rising, single point]"
CC1(C)CC(NC(=O)COc2ccc3ccc(=O)oc3c2)CC(C)(C)N1,11.5%,,"29.1 µM [rising, single point]"
Cn1c(COc2ccc(F)cc2)nc2ccccc21,-5.25%,,

# Of the compounds above, these have two or more sulfur atoms:
SMILES,cell number change,AC50 [1],AC50 [2]
CCCc1ccc(S(=O)(=O)NCc2nnc(SC)n2C)cc1,5.26%,,
O=C(Nc1nnc(SCc2c(Cl)cccc2Cl)s1)C1CC(=O)N(c2ccc3c(c2)OCCO3)C1 (centres undefined),13.8%,,
CN(c1cccc(NC(=O)c2ccccc2N(C)S(=O)(=O)c2ccccc2)c1)S(C)(=O)=O,-8.47%,,"29.1 µM [falling, single point]"
O=C(NC(=S)N1CCN(c2nc(-c3ccccc3)cs2)CC1)c1cccnc1,10.1%,,

# (list continues)

SMILES,cell number change,AC50 [1],AC50 [2]
CC1CCCN(S(=O)(=O)c2cc3c4c(c2)C(C)C(=O)N4CCC3)C1 (centres undefined),8.58%,,"29.1 µM [falling, single point]"
CC(C)c1ccc(NC2CCCN(C(=O)c3cnc4ccccn4c3=O)C2)cc1 (centres undefined),-2.6%,,"0.13 µM [falling, full curve, poor fit]"
CCOC(=O)CSc1nc2cc(S(=O)(=O)N3CCOCC3)ccc2n1CC,-0.33%,,"0.00461 µM [rising, full curve, poor fit]"
Cc1[nH]c2ccccc2c1C(=O)CN1CCN(C/C=C/c2ccccc2)CC1,-26%,,"29.1 µM [falling, single point]"
COc1ccc(/C=N/NC(=O)CCn2cnc(-c3ccccc3)c2-c2ccccc2)cc1,-13.8%,,"0.116 µM [falling, full curve, poor fit]"
CCCn1c(=O)c(C(=O)NNS(=O)(=O)c2ccc(C)cc2)c(O)c2ccccc21,-52.3%,"20.6 µM [falling, partial curve, poor fit]","14.6 µM [falling, partial curve, poor fit]"
O=C(/C=C/c1cccc(Cl)c1)c1ccc([N+](=O)[O-])o1,-73.3%,"23.1 µM [falling, partial curve, poor fit]","7.31 µM [falling, partial curve]"
O=C(O)C1CCN(S(=O)(=O)c2cccs2)CC1,1.67%,,"0.00517 µM [rising, full curve, poor fit]"
Cn1c(NCCc2ccccc2)cc(=O)n(C)c1=O,-23.4%,,"29.1 µM [falling, single point]"
CCc1cc2ccc(C)c(C)c2nc1SCC(=O)Nc1cc(C)on1,-4.35%,,
O=C(COc1cc2oc(=O)c3c(c2cc1Cl)CCC3)Nc1ccccn1,54.2%,"29.1 µM [rising, single point]","23.1 µM [falling, partial curve]"
O=C(Nc1nc(-c2cccs2)cs1)c1cccc(S(=O)(=O)N2CCCCC2)c1,,"0.0731 µM [rising, full curve, poor fit]","0.651 µM [rising, full curve]"
COc1ccc(NC(=O)C2CCN(S(=O)(=O)c3cccs3)CC2)cc1OC,0.0695%,,"0.326 µM [falling, full curve]"
C=CCn1nnnc1-c1cccc(Cl)c1,29.3%,,
COc1cccc(/C=C2/Sc3ccc(C(=O)NCCCN4CCCC4)cc3NC2=O)c1,20.3%,"0.00651 µM [rising, full curve, poor fit]",
CCc1nnc(NC(=O)CCC(=O)NC2CCCc3ccccc32)s1 (centres undefined),12.1%,,"0.82 µM [falling, single point]"
C1CCCCCC(=NNc2nn[nH]n2)CCCCC1,-3.31%,,"7.31 µM [rising, partial curve, poor fit]"
Cc1[nH]nc2c1-c1nc3ccccc3nc1C(C)(C)C2,-36.5%,"18.4 µM [falling, single point]",
COc1ccc(C)cc1NC(=O)c1ccc(S(=O)(=O)N2CCOCC2)cc1,-3.98%,,"6.51 µM [rising, single point]"
CCOC(=O)C1=C(c2ccccc2)NC(N)=NC1c1ccc(OCc2ccc(C(=O)OC)cc2)cc1 (centres undefined),-67.1%,"25.9 µM [falling, single point]","29.1 µM [falling, single point]"
